Data from PMC6319010.

Amino acid sequences for entries named in this document (tags omitted).
UniProt P63104: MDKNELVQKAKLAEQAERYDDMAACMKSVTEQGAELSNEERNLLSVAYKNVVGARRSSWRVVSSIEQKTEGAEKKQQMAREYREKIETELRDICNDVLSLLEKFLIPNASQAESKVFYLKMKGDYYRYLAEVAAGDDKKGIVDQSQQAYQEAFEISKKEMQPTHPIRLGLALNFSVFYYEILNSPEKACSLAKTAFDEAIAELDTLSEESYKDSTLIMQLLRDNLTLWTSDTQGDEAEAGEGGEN
UniProt P62258: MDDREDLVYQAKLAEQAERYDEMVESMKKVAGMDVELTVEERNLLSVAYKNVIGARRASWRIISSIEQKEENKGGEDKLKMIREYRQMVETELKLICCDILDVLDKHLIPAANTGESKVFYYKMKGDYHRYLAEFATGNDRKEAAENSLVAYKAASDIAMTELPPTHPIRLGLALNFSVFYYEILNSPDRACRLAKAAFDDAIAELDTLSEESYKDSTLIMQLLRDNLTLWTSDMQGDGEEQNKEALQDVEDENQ
UniProt P31946: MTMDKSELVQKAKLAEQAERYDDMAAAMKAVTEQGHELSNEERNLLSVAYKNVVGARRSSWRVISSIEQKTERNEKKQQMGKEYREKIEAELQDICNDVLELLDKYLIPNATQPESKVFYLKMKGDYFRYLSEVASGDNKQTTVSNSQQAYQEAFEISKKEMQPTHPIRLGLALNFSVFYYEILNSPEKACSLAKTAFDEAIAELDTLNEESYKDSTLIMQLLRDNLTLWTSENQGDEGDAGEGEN

T1: FLAG-tagged full-length heme oxygenase-1 (HO-1) (human) (UniProt P09601)
T1 sequence: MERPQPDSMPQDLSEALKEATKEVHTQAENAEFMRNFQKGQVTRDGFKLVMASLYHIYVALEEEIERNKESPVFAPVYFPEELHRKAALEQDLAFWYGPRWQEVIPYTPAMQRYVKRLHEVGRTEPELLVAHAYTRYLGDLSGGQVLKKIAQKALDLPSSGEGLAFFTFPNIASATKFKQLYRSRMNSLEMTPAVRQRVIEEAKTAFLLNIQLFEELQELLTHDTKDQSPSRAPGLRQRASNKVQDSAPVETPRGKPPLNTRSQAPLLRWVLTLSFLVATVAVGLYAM

B1: 14–3-3 protein gamma isoform (endogenous) (protein, UniProt P61981 1-247)
chain: MVDREQLVQKARLAEQAERYDDMAAAMKNVTELNEPLSNEERNLLSVAYKNVVGARRSSWRVISSIEQKTSADGNEKKIEMVRAYREKIEKELEAVCQDVLSLLDNYLIKNCSETQYESKVFYLKMKGDYYRYLAEVATGEKRATVVESSEKAYSEAHEISKEHMQPTHPIRLGLALNYSVFYYEIQNAPEQACHLAKTAFDDAIAELDTLNEDSYKDSTLIMQLLRDNLTLWTSDQQDDDGGEGNN

Molecular target: T1, FLAG-tagged full-length heme oxygenase-1 (HO-1) (human)
Experiment: affinity purification with mass spectrometry; lysate of cells transfected with FLAG-HO-1 or FLAG vector on FLAG affinity gel, 4 °C 4 h; 50 mM Tris-HCl pH 7.4, 100 mM NaCl, 0.5% NP-40, 1 mM EDTA; bands of 15-40 kDa cut out, LC-MS/MS

| Molecule | binding |
| --- | --- |
| 14–3-3ζ (endogenous) (from UniProt P63104 1-245) | binds |
| 14–3-3 protein epsilon isoform (endogenous) (from UniProt P62258 1-255) | binds |
| 14–3-3 protein beta/alpha isoform (endogenous) (from UniProt P31946 1-246) | binds |
| B1 | binds |

No constants are given. Whether binding was seen depends on the method and setting. Binding seen in cells or lysates may run through a third protein. A yes stands for co-enrichment or nearness to the bait. Other partners may have been found. Tags and fused reporters may be left off the sequences shown.
